System: T47D breast cancer multicellular tumor spheroids
Assay: In vitro screen in T47D breast cancer multicellular tumor spheroids, BET inhibitor plus palbociclib
Format: cell-based
Settings: BET inhibitor (30, 300, 3000 nM) in combination with 25 nM palbociclib; from AUC of spheroid growth curves (Chalice Analyzer)
Protocol: T47D multicellular tumor spheroids were grown in a low-adhesion 96-well plate for use in screening. […] Two hundred T47D cells were seeded per well of 96-well ultralow attachment plates (ULA-96U, Thermo Fisher). Cells were grown for 4 days to allow spheroid formation, followed by initiation of compound treatment as indicated (day 0). […] The medium was replaced every 3 days. Spheroid average diameter was quantified every 3 days (Celigo 200-BFFL-S, Nexcelcom) and spheroid growth curves were obtained. The area-under-curve (AUC) was quantified and used to calculate synergy scores for BET inhibitors in combination with palbociclib (Chalice Analyzer, Horizon Discovery).

Compound `CCNC(=O)C[C@@H]1N=C(c2ccc(Cl)cc2)c2cc(OC)ccc2-n2c(C)nnc21` [B3, IBET-762 (GSK525762)] has a Synergy score of 0.99.

Source: patent US20200405809A1, “COMBINATION OF A CYCLIN DEPENDENT KINASE INHIBITOR AND A BET- BROMODOMAIN INHIBITOR” (Pfizer Inc., priority 2018, published 2020)
